Data source: PubChem BioAssay AID1259331 (Drosophila RNAi Screening Center, 2017)

- Assay: 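Knock-downs that alter ATP level after a high zinc chloride dose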 (primary screen)
- Cell system: Drosophila S2R+ cells
- Reagent: long dsRNA against Drosophila genes
- Duration: 5 days (4 days knock-down, then 1 day zinc)
- Challenge: zinc chloride at 15 mM final level for 1 day
- Detection: 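Luminescent ATP assay standing in for viability; Z score is the mean over three replicate plates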
- Direction: mean Z score: higher = more ATP than other wells, better survival under zinc; ATP luminescence: higher = more ATP, more viable cells
- Rule for the call: 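Hit when the absolute Z score is greater than 1.5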
- Meaning of the calls: active = hit, ATP up or down; inactive = not a hit
In all, the deposit lists about 3,100 reagents; below is a random part of them. In the full data, 126 (4.1%) are marked active. 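Calls are per reagent; zinc was so toxic that few knock-downs lowered ATP further, so most hits raise ATP.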 The raw values are shown without normalisation. A plus sign joins genes that one reagent is predicted to hit. The record does not give: the amount of reagent.

The first 2 entries as a preview:
Target gene | DRSC id | mean Z score | ATP luminescence, replicate 1 | ATP luminescence, replicate 2 | outcome
CG10073 | DRSC05961 | -0.0499 | 64830 | 64865 | inactive
Lcch3 | DRSC22175 | -0.0556 | 44305 | 47360 | inactive

The listing, from the first entry:
Target gene | DRSC id | mean Z score | ATP luminescence, replicate 1 | ATP luminescence, replicate 2 | outcome
CG10073 | DRSC05961 | -0.0499 | 64830 | 64865 | inactive
Lcch3 | DRSC22175 | -0.0556 | 44305 | 47360 | inactive
ste24c + CG30461 | DRSC05639 | -0.284 | 37690 | 40149 | inactive
ste24c + CG30461 | DRSC07316 | -0.147 | 55625 | 70081 | inactive
CG7990 | DRSC19296 | -0.17 | 41891 | 45268 | inactive
CG7990 | DRSC23195 | -0.012 | 48306 | 44377 | inactive
CG7990 | DRSC26580 | -0.0417 | 59740 | 57357 | inactive
Sema1a | DRSC03433 | -0.425 | 42559 | 36747 | inactive
CG8837 | DRSC00711 | -0.228 | 42643 | 43228 | inactive
CG8837 | DRSC29440 | 0.217 | 68240 | 61181 | inactive
CG32091 | DRSC10820 | -0.15 | 72620 | 53398 | inactive
CG32091 | DRSC39787 | 0.115 | 57469 | 58231 | inactive
Fitm | DRSC09772 | -0.471 | 25604 | 29846 | inactive
Fitm | DRSC28750 | -0.0473 | 61284 | 60032 | inactive
CG5281 | DRSC15761 | 0.203 | 35787 | 63599 | inactive
CG5281 | DRSC39880 | 0.258 | 56894 | 72620 | inactive
TM9SF2 | DRSC03197 | -0.281 | 50601 | 54013 | inactive
TM9SF2 | DRSC39485 | -0.053 | 47302 | 48835 | inactive
Cirl | DRSC23235 | 0.421 | 48800 | 49640 | inactive
Cirl | DRSC28280 | 0.0736 | 62638 | 62415 | inactive
Or35a | DRSC03389 | -0.494 | 44822 | 36799 | inactive
Or35a | DRSC39514 | 0.0451 | 56088 | 47514 | inactive
CG11425 | DRSC11657 | 0.46 | 89824 | 65039 | inactive
CG11425 | DRSC28400 | -0.21 | 56859 | 59466 | inactive
CG32301 | DRSC08613 | 0.267 | 78709 | 75055 | inactive
CG32301 | DRSC39589 | 0.111 | 65571 | 60275 | inactive
FMRFaR | DRSC08555 | -0.232 | 69310 | 66788 | inactive
OXA1L | DRSC09672 | -0.651 | 28090 | 25965 | inactive
OXA1L | DRSC29571 | 0.154 | 62261 | 65314 | inactive
CG32986 | DRSC02509 | 0.00568 | 52658 | 38417 | inactive
CG32986 | DRSC39699 | 0.171 | 63547 | 61901 | inactive
Lgr1 | DRSC16675 | -0.332 | 51269 | 55522 | inactive
Lgr1 | DRSC39668 | -0.382 | 53207 | 54150 | inactive
GABA-B-R2 | DRSC28127 | 0.369 | 69481 | 63890 | inactive
GABA-B-R2 | DRSC39461 | -0.0762 | 57700 | 46211 | inactive
CG30047 | DRSC05340 | -0.839 | 28999 | 31664 | inactive
CG32079 | DRSC22636 | 0.306 | 55385 | 46503 | inactive
CG32079 | DRSC39426 | 2.46 | 86273 | 78589 | active
sas | DRSC12631 | 0.642 | 88263 | 69704 | inactive
CG7091 | DRSC12944 | -0.424 | 34364 | 53000 | inactive
CG7091 | DRSC16197 | -0.249 | 34124 | 50921 | inactive
spdo | DRSC13988 | 0.676 | 86410 | 72620 | inactive
spdo | DRSC24230 | -0.218 | 70750 | 45097 | inactive
Nup358 | DRSC29772 | 3.73 | 1.25e5 | 1.13e5 | active
CG5554 | DRSC04513 | -0.172 | 52281 | 40571 | inactive
CG5554 | DRSC25559 | -0.014 | 58055 | 52984 | inactive
hbs | DRSC07627 | -0.241 | 65725 | 67149 | inactive
hbs | DRSC39446 | 0.273 | 59123 | 55676 | inactive
spi | DRSC03618 | -0.192 | 51252 | 33010 | inactive
spi | DRSC29414 | 0.0273 | 60803 | 62844 | inactive
trpl | DRSC06728 | 0.251 | 88761 | 76324 | inactive
trpl | DRSC25485 | 0.0211 | 47154 | 51441 | inactive
CG4607 | DRSC18375 | -0.398 | 59877 | 59003 | inactive
Ir31a | DRSC22358 | -0.0735 | 52504 | 55910 | inactive
mthl13 | DRSC05238 | 0.596 | 50454 | 51989 | inactive
CG18281 | DRSC11742 | -0.476 | 27751 | 25569 | inactive
CG18281 | DRSC39875 | -0.528 | 51683 | 52915 | inactive
mbo | DRSC16123 | 1.69 | 63221 | 66285 | active
mbo | DRSC39478 | 0.941 | 69927 | 39525 | inactive
Gr5a | DRSC18085 | -0.459 | 58111 | 58780 | inactive
Ser | DRSC16856 | 0.524 | 71591 | 77945 | inactive
Ser | DRSC25494 | -0.637 | 34159 | 52572 | inactive
CG2930 | DRSC17730 | -0.599 | 35958 | 39576 | inactive
CG2930 | DRSC26303 | -0.516 | 44154 | 45731 | inactive
senju | DRSC02366 | 0.386 | 54750 | 49057 | inactive
senju | DRSC39769 | -0.0856 | 53790 | 56308 | inactive
CG32795 | DRSC18609 | -0.171 | 38273 | 42028 | inactive
CG32795 | DRSC18610 | 0.21 | 40963 | 54219 | inactive
